# Primary screen of a compound library

The values are deposited in ChEMBL (CHEMBL3988442, “University of Dundee, Small-Polar-MMV Screening Library” (2021)).

Values are the deposited “Percent Effect”, in %.
How 0% and 100% were set is not recorded. Most values in the screen are low, and negative values occur.
This is an unselected part of the compounds tested.
Two or more numbers in one place are separate tests of the same structure; such repeats can differ widely.

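Viability assay of Plasmodium falciparum sporozoites; the read-out is not stated. The concentration is filed as 10 mM, unlikely as a test dose, so the dose is not known. The record gives no direction; compounds that gave an IC50 in retests scored well above the rest, so higher reads as lower viability. Strong results were mostly tested again. Size under these conditions: about 34,000 compounds, about 280 of them at 50% or above in at least one test.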

- CCCn1cc(C(=O)NC2CCN(CC(=O)NC3CC3)CC2)c(C)n1 : -15%
- CCOCC(O)CN1CCN(C(=O)Cc2ccc3c(c2)CCO3)CC1 (stereo not shown) : 5.936%
- CC(C)(CCS(C)(=O)=O)CNc1ccc2ccc(F)cc2n1 : -26.06%
- O=C(c1noc2c1CCCC2)N1CCCC(c2nccs2)C1 (stereo not shown) : -1.834%
- CC1COCCN1C(=O)Nc1cnc2c(cnn2C(C)C)c1 (stereo not shown) : 12.26%
- Cc1nc(C)n(C2CCCN(C(=O)CCCn3ccnc3)C2)n1 (stereo not shown) : 0.6764%
- Cc1cnn(C2CN(Cc3nc(-c4ccco4)no3)C2)c1 : -4.088%
- Cc1ncc(CNCC2CCCN2c2cccnn2)s1 (stereo not shown) : -6.205%
- CCCC(=O)Nc1cccc([C@H]2C[C@@H](NC(C)=O)CCO2)c1 : 6.839% & 2.31% & 4.668%
- CCC(=O)Nc1cccc(OCC(=O)N2CC=CC2C(C)C)c1 (stereo not shown) : -0.5372%
- Cn1cc(C(=O)N2CCCC2c2ccc3c(c2)OCO3)ccc1=O (stereo not shown) : -2.959%
- CCCn1ncc2c(C(=O)Nc3n[nH]c(SC)n3)cc(C3CC3)nc21 : 9.894%
- CC(=O)NCc1nnn2c1CN(c1ncc(C)cn1)CCC2 : -4.557%
- O=C(O)c1ccccc1-n1cc(CN2CCOC(c3cc[nH]n3)C2)cn1 (stereo not shown) : -5.05%
- CN(Cc1cn2ccccc2c1C#N)C1CCCN(c2cccnn2)C1 (stereo not shown) : -3.733%
- CCc1cnc(N2CCC(=O)N(CC3CC3)C(C(C)C)C2)nc1 (stereo not shown) : -14.94%
- O=C(c1ccsc1)N1CCC2(CC1)CCN(S(=O)(=O)C1CC1)CC2 : 13.67%
- CCN(Cc1cccc2c1OCO2)C(=O)C(C)c1cccnc1 (stereo not shown) : -15.47%
- CC(C)(O)CN1CCN(C(=O)c2cccc3cccnc23)CC1 : 3.549%
- CC1(C(=O)N2CCOCC2)CN(Cc2ccccn2)CCO1 (stereo not shown) : -6.754%
- O=C(O)C(F)(F)F.O=C(O)C(F)(F)F.[H][C@@]12CN(Cc3cccc(F)c3)C[C@]1([H])CN(Cc1ccccn1)C2 : 0.7881%
- Cc1cn2c(n1)CCC(NC(=O)c1ccc(CS(C)(=O)=O)o1)C2 (stereo not shown) : -3.792%
- CN(C)CCN1CCN(C)c2nc(-c3ccccc3)ncc2C1=O : -0.254%
- N#Cc1ccc(N2CCCC3(CCN(c4cccnc4)CC3)C2)cc1.O=C(O)C(F)(F)F : 9.444%
- Cc1nc2cc(C3CCOCC3)nn2c(NCC2COCCO2)c1C (stereo not shown) : 10.46%
- COc1ccc(CN(C)[C@@H]2CN(C(=O)c3cccnc3)C[C@H]2O)cc1 : -8.309%
- Cc1cnc(C(=O)Nc2cc(F)ccc2OCC2CCCO2)cn1 (stereo not shown) : -10.03%
- O=C(O)C(F)(F)F.[H][C@@]12CN(CC3CC3)C[C@]1([H])C(=O)N(c1ccsc1)C2 : -2.057%
- CC(C)c1nn(C)c(Cl)c1CNCc1ccc(N(C)C)nc1.Cl : 9.235%
- CC(C)n1cc(CN2CCCN(C(=O)COC3CCCC3)CC2)cn1 : 4.588%
- CN(C)c1ccccc1C(=O)N1CCOC2(CNCCOC2)C1 (stereo not shown) : -0.614%
- O=C(O)C(F)(F)F.[H][C@]12CCC(=O)N(c3cccnc3)[C@@]1([H])CCN2C(=O)c1ccc(C)o1 : 3.906%
- O=C(NCc1ccc(-c2ccn[nH]2)cc1)N1CCC(N2CCCC2)C1 (stereo not shown) : 14.26%
- Cc1ncsc1C(=O)NCc1ccnc(N2CCN(C)CC2)c1 : -0.1306%
- CO[C@H]1CCN(C2CCOCC2)C[C@@H]1Cc1ccccc1.O=C(O)C(F)(F)F : -5.133%
- CC(C(=O)N(Cc1ccc(C#N)cc1)CC(F)(F)F)S(C)(=O)=O (stereo not shown) : -20.75%
- Cl.O=C(NC1CCCC1)c1ccnc(C2CCNCC2)c1 : 4.058%
- COCCN1CCCC(c2ncc(C(=O)N(C)C)c(C)n2)C1 (stereo not shown) : -4.87%
- CC(C)OCCN1CCC(N2CCN(C)C2=O)CC1 : -0.3271%
- COCCC(=O)N1CCC(c2nc(O)cc(-c3ccncc3)n2)C1 (stereo not shown) : 1.505%
- CN(C)C(=O)CNC(=O)c1cc2c(s1)CCN2S(C)(=O)=O : 18.21%
- CCOCC(O)CN1CCN(C(=O)Cc2ccc(C)nc2)CC1 (stereo not shown) : 6.43%
- N#CC1(C(=O)NCCCNc2ccc(C(F)(F)F)cn2)CCCC1 : -6.43%
- O=C(NCC1CC2(CO1)CN(c1ncccn1)C2)C1CCC1 (stereo not shown) : -4.378%
- O=C(CN1CCCCC1Cn1cncn1)NCCc1ccsc1 (stereo not shown) : 8.38%
- COc1cc2nc3n(c(=O)c2cc1OC)CCN(C)CC3 : -1.303%
- NC(=O)c1c(SCCN2CCCCC2)sc2c(O)cc(=O)[nH]c12 : 14.41% & -4.28%
- COc1cccc2c1OCC(C(=O)N(C)CCCc1cnn(C)c1)C2 (stereo not shown) : 0.3542%
- Cc1nc2c(c(NCCN3CCOCC3)n1)CCN(C)C2 : 0.5895%